The data set in a line: Apparent permeability, 21 day cultured Caco-2 cell monolayer, bi-directional (Example 7). In kind it is in vitro ADME. The following applies: human, Caco-2, 2 μM. As to the method:
10 mM stock solution of test compound was prepared in DMSO. 10 mM stock was diluted with 100% DMSO to prepare 0.2 mM, 0.2 mM stock was diluted with HBSS buffer to a final concentration of 2 μM.
Add 250 μL of DMEM to the basal compartment of 96 well multi-screen Caco-2 plates and seed 12000 cells/well (0.16×10^6 cells/ml) in all the apical wells required and 2 wells with only media as blank without cells. Place the Caco-2 plate in CO2 incubator at 37° C. for proliferation of cells.
The utilized media was replenished every alternate day by fresh medium. On 21st day, utilized medium was removed and washed twice with HBSS Buffer and incubated with HBSS buffer 30 min in incubator and initiated the assay.
75 μL of test compound was added to apical wells and 250 μL of HBSS buffer with 1% DMSO was added to basal wells. Samples were collected at 120 min and processed as stated below.
250 μL of test compound was added to basal wells and 75 μL of HBSS buffer with 1% DMSO was added to apical wells. Samples were collected at 120 min and processed as stated below.
Single point calibration curve in HBSS buffer was used. 100 μL of supernatant was diluted with 200 μL of water and submitted for LC-MS/MS analysis.
Efflux ratio=Papp of basal to apical samples/Papp of apical to basal samples
Recovery: {(dQ of Apical+dQ of Basal)/Standard dQ}*100

Read-outs that look alike come from different tables or passages of the source.

For the compound `CC(C)NCC(O)COc1ccc(CC(N)=O)cc1` (stereo not drawn) [Atenolol], the Papp B→A at 120 min, 2 μM (average values, read-out: Papp Basal to Apical) is 0.57 ×10⁻⁶ cm/s. Moreover, the recovery at 120 min, 2 μM runs as follows: (read-out: A to B % Recovery) 93.9%; (read-out: B to A % Recovery) 85.3%.

(Values after patent US20230146455A1, “TREATMENT OF INFLAMMATORY DISEASES WITH PEPTIDES AND PHARMACEUTICAL COMPOSITIONS” (Yuyu Pharma, Inc., priority 2020, published 2023).)
